# From PubChem BioAssay AID493014 (National Center for Advancing Translational Sciences (NCATS), 2011)
# This is one part of the list. These are further read-outs of the screen, such as a control signal, another cell line or another target. No call is given for them. Compounds called inactive in the main read-out are mostly missing here. Potencies come from curve fits of mixed quality, noted in brackets.
# Assay: qHTS Assay to Find Inhibitors of Chronic Active B-Cell Receptor Signaling
# Settings: ABC-DLBCL IkBa-CBG/CBR reporter, luminescence ratio (green luciferase fused to IkBa over red control in TMD8 lymphoma cells), 4 h
# In short: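 TMD8 human ABC-DLBCL cells with doxycycline-inducible IκBα–green luciferase fusion and unfused red luciferase, in 0.5% FBS medium; compounds up to 46 uM, 4 h at 37C. Green/red luminescence ratio, filter-overlap corrected, fitted to concentration-response curves.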
# [1] = measured here: CBR red luminescence, cell number
# [2] = measured here: IkBa-CBG green luminescence
SMILES,AC50 [1],AC50 [2]
CCSc1nc(-c2ccccc2)c(-c2ccccc2)n1CC(O)CO (stereo unspecified),"10 µM [falling, partial curve]",
O=c1ccc2cc(S(=O)(=O)N3CCOCC3)ccc2o1,"1.64 µM [falling, partial curve, poor fit]",
N#Cc1cc(C(=O)Cc2ccccc2)c[nH]1,"7.08 µM [rising, partial curve, poor fit]",
O=C(O)c1ccccc1NC(=O)N1CCOCC1,"22.4 µM [falling, single point]",
O=C1COc2ccc(C(=O)COC(=O)c3ccccc3F)cc2N1,"25.9 µM [falling, partial curve, poor fit]",
CCc1cc2c(=O)c(-c3nc(C)cs3)coc2cc1OC(C)C(=O)NCCO (stereo unspecified),"0.316 µM [falling, full curve, poor fit]",
O=C(c1ccoc1)N1CCC2(CC1)Oc1ccc(F)cc1C(=O)C21CC(c2ccccc2)=NO1 (stereo unspecified),"35.5 µM [falling, single point]",
COc1ccc(CCNC(=O)COC(=O)c2cc(S(=O)(=O)N3CCOCC3)ccc2C)cc1OC,"20.6 µM [rising, single point]","10.3 µM [falling, partial curve, poor fit]"
CCCCCCN(C(=O)CCCCCN1C(=O)NC(c2ccc(-c3ccccc3)cc2)C(C(=O)OCc2ccccc2)=C1C)C(C(=O)NCCCC)C1CCCCC1 (stereo unspecified),"35.5 µM [rising, single point]",
CC(C(=O)NC1CCS(=O)(=O)C1)N1C(=O)/C(=C/c2ccc(Cl)cc2)SC1=S (stereo unspecified),"35.5 µM [falling, single point]",
N#Cc1c(F)cccc1NCc1cccs1,"5.62 µM [rising, single point]",
O=C(Nn1c(O)c(C=C2N=c3ccccc3=N2)sc1=S)c1ccc(Cl)cc1,"3.66 µM [falling, full curve]",
N#CCCN/N=C(/Cc1nc2ccccc2[nH]1)c1ccc(Cl)cc1,"29.1 µM [falling, single point]",
CN1CCN(CC#CCn2c3ccccc3c3ccccc32)CC1,"4.61 µM [rising, single point]",
Cc1c(OCC(=O)NCC2CCC(C(=O)O)CC2)ccc2c(-c3ccccc3)cc(=O)oc12 (stereo unspecified),"20 µM [rising, single point]",
COc1ccc(CNC(=O)CNC(=O)c2ccc(C(C)(C)C)cc2)cc1OC,"11.2 µM [rising, partial curve]","11.2 µM [falling, partial curve, poor fit]"
O=C(CCNC(=O)c1ccc(Br)cc1)Nc1ccc(S(=O)(=O)N2CCCCC2)cc1,"4.11 µM [falling, partial curve, poor fit]",
Cc1ccc(NC(=O)CN2C(=O)C3CC=CCC3C2=O)cc1S(=O)(=O)N1CCOCC1 (stereo unspecified),"4.47 µM [rising, full curve, poor fit]",
FC(F)(F)c1ccc(NC(=S)NC2CCCCC2)cc1,"6.31 µM [rising, partial curve, poor fit]",
COc1ccc2ncn(-c3ccccc3)c2c1,"0.562 µM [rising, full curve, poor fit]",

# 13 entries already listed, sorted by heavy-atom count, low to high.
SMILES,AC50 [1],AC50 [2]
N#Cc1c(F)cccc1NCc1cccs1,"5.62 µM [rising, single point]",
COc1ccc2ncn(-c3ccccc3)c2c1,"0.562 µM [rising, full curve, poor fit]",
O=C(O)c1ccccc1NC(=O)N1CCOCC1,"22.4 µM [falling, single point]",
FC(F)(F)c1ccc(NC(=S)NC2CCCCC2)cc1,"6.31 µM [rising, partial curve, poor fit]",
N#CCCN/N=C(/Cc1nc2ccccc2[nH]1)c1ccc(Cl)cc1,"29.1 µM [falling, single point]",
CCSc1nc(-c2ccccc2)c(-c2ccccc2)n1CC(O)CO (stereo unspecified),"10 µM [falling, partial curve]",
CC(C(=O)NC1CCS(=O)(=O)C1)N1C(=O)/C(=C/c2ccc(Cl)cc2)SC1=S (stereo unspecified),"35.5 µM [falling, single point]",
CCc1cc2c(=O)c(-c3nc(C)cs3)coc2cc1OC(C)C(=O)NCCO (stereo unspecified),"0.316 µM [falling, full curve, poor fit]",
O=C(CCNC(=O)c1ccc(Br)cc1)Nc1ccc(S(=O)(=O)N2CCCCC2)cc1,"4.11 µM [falling, partial curve, poor fit]",
Cc1ccc(NC(=O)CN2C(=O)C3CC=CCC3C2=O)cc1S(=O)(=O)N1CCOCC1 (stereo unspecified),"4.47 µM [rising, full curve, poor fit]",
O=C(c1ccoc1)N1CCC2(CC1)Oc1ccc(F)cc1C(=O)C21CC(c2ccccc2)=NO1 (stereo unspecified),"35.5 µM [falling, single point]",
COc1ccc(CCNC(=O)COC(=O)c2cc(S(=O)(=O)N3CCOCC3)ccc2C)cc1OC,"20.6 µM [rising, single point]","10.3 µM [falling, partial curve, poor fit]"
CCCCCCN(C(=O)CCCCCN1C(=O)NC(c2ccc(-c3ccccc3)cc2)C(C(=O)OCc2ccccc2)=C1C)C(C(=O)NCCCC)C1CCCCC1 (stereo unspecified),"35.5 µM [rising, single point]",

# Going on with the list:

SMILES,AC50 [1],AC50 [2]
Cc1ccc(-c2cnc(C3CC3)o2)cc1S(=O)(=O)Nc1ccccc1,"35.5 µM [falling, single point]",
Cc1ccc(-c2ccc(S(=O)(=O)NCC3CCCO3)cc2)cc1 (stereo unspecified),"0.1 µM [rising, full curve, poor fit]",
CC(C)NC(=O)c1ccc(NC(=O)CC2SC(N3CCCCC3)=NC2=O)cc1 (stereo unspecified),"9.2 µM [rising, partial curve, poor fit]",
C=CCn1c(SCC(=O)NC(=O)NCc2ccco2)nc2sc(C)c(C)c2c1=O,"25.1 µM [rising, single point]","12.6 µM [falling, partial curve, poor fit]"
Cc1ccc(-c2c(C#N)c(N)n3c(nc4ccccc43)c2C#N)cc1,"0.731 µM [rising, full curve]",
Clc1ccc(-c2nc3cnccn3c2Nc2ccc3c(c2)OCO3)cc1,"29.1 µM [falling, single point]",
CC(C)C[C@H](NC(=O)c1nc[nH]c1C(=O)N(C)Cc1ccccc1)C(=O)OCc1ccccc1,"15.8 µM [falling, single point]",
C#Cc1cccc(NC(=O)Cc2cccs2)c1,"1.78 µM [rising, full curve, poor fit]",
COc1ccc(/C=N/NC(=O)c2ccn[nH]2)cc1Cn1cc([N+](=O)[O-])cn1,"15.8 µM [falling, partial curve]",
Nc1ccc(C(=O)N/N=C/c2cn(Cc3ccccc3)c3ccccc23)cc1,"35.5 µM [falling, single point]",
CC(C)c1ccc(OCC(=O)Nc2cccc(C(=O)Nc3ccccc3C(=O)O)c2)cc1,"10 µM [falling, partial curve]",
CCOC(=O)c1ccccc1N1C(=O)C2Sc3[nH]c(=O)sc3C(/C=C/c3ccccc3)C2C1=O (stereo unspecified),"20.6 µM [falling, partial curve, poor fit]",
Cc1[nH]c2ccccc2c1C(=O)C(C)OC(=O)c1ccccc1NCCO (stereo unspecified),"0.82 µM [falling, full curve]",
COc1cccc(NC(=O)c2ccc3nc(C)sc3c2)c1,"2.82 µM [falling, partial curve, poor fit]",
Cc1ccc(S(=O)(=O)/N=C(\CN2CCOCC2)N2CCOCC2)cc1,"35.5 µM [falling, partial curve, poor fit]",
COc1cccc(/C=C/c2onc(C)c2S(=O)(=O)N2CCC(C(=O)N3CCC(C)CC3)CC2)c1,"0.708 µM [rising, full curve, poor fit]",
Cc1ccc(S(=O)(=O)/C(C#N)=C/c2c(N3CCN(C)CC3)nc3c(C)cccn3c2=O)cc1,"7.08 µM [falling, partial curve, poor fit]",
Cn1c(Cn2nnc3ccccc32)nnc1SCC(=O)c1ccccc1F,"23.1 µM [rising, partial curve]","32.6 µM [falling, partial curve, poor fit]"
COc1ccc(/C=C(\C#N)C(=O)OCC(=O)NC2CC2)cc1,"12.6 µM [rising, partial curve, poor fit]",
Nc1cc(=O)[nH]c(=O)n1CC1CC1,,"18.4 µM [falling, partial curve, poor fit]"

SMILES,AC50 [1],AC50 [2]
CCCc1c(C)nn(-c2ncccc2[N+](=O)[O-])c1C,"35.5 µM [rising, partial curve, poor fit]",
CCCCNC(=O)C(c1ccc(OCC(=O)OC)c(C(=O)OC)c1)N(CCOC)C(=O)CCCCCN1C(=O)NC(c2ccc(-c3ccccc3)cc2)C(C(=O)OCc2ccccc2)=C1C (stereo unspecified),"7.94 µM [falling, partial curve]","7.94 µM [rising, partial curve, poor fit]"
Cc1nc(NC(=O)c2ccc(F)cc2)nc2cc3c(cc12)OCO3,"20 µM [falling, single point]",
CCc1ccc2nc3nc(C)cc(C)c3c(N)c2c1,"10 µM [falling, partial curve, poor fit]",
CCOC(=O)C(=NC(C)(C)C)NNc1cc(Cl)ccc1Cl,"5.8 µM [rising, partial curve]",
CCN(CC)C(=O)c1n[nH]c(=O)c2ccccc12,"10.3 µM [rising, partial curve]",
Cc1nc2ccccc2c2c1C(=O)N(c1ccc(C(=O)O)cc1)C2=O,"10 µM [falling, partial curve]",
CCCc1nc(N)c(C#N)c(-c2ccco2)c1CC,"0.366 µM [falling, full curve]",
Cc1ccc(C(=O)Nc2nc(=O)n(C)s2)cc1,"7.94 µM [falling, partial curve]",
COc1ccc2oc(=O)c(-c3csc(Nc4ccc(O)cc4)n3)cc2c1,"13 µM [falling, partial curve]","29.1 µM [rising, single point]"
CC[n+]1c(/C=C/c2ccc(OC)c(OC)c2)ccc2ccccc21,"10 µM [rising, partial curve]",
CN1CC(=O)N(CC(=O)Nc2ccc(SC(F)F)cc2)C1=O,"11.2 µM [rising, single point]",
O=C(CO/N=C/c1ccc(Cl)cc1Cl)NNC(=O)c1ccc(Cl)cc1Cl,"35.5 µM [rising, single point]",
COC(=O)C1CCCN1C(=O)COc1ccc(Br)cc1Cl (stereo unspecified),"29.1 µM [rising, single point]",
Brc1ccc(CNCc2cccs2)cc1,"18.4 µM [rising, single point]",
CCC(C)C(NC(=O)CCC(=O)OCC(=O)[C@@]1(O)CCC2[C@@H]3CCC4=CC(=O)C=C[C@]4(C)C3[C@@H](O)C[C@@]21C)C(=O)O (stereo partly specified),,"1.41 µM [falling, partial curve, poor fit]"
Cc1ccccc1OCc1nc(-c2ccc(NC(=O)c3ccc4c(c3)OCO4)cc2)no1,"0.501 µM [falling, full curve, poor fit]",
COc1ccc(C)cc1NC(=O)NNC(=O)c1ccoc1C,"35.5 µM [rising, single point]",
CCOC(=O)[C@H]1[C@H]2COc3cc(OC)ccc3[C@@H]2N2C(=O)CN(Cc3ccc(C)cc3)C(=O)[C@@]12C,"0.00411 µM [rising, full curve, poor fit]",
COc1ccc(C(=O)NCC(=O)N/N=C/C=C/c2ccccc2)cc1OC,"22.4 µM [rising, single point]",
